Laboratory results: PubChem BioAssay AID1259261 (Sanger Institute, 2017)
Here is one part, drawn at random, of 794 deposited reagents. 10 of all reagents (1.3%) count as active. 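Calls reflect knock-down alone without drug; synergy scores with BYL719, cetuximab or trametinib do not affect calls.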 Unmarked entries are inactive. Viability is capped at 1. Not stated in the record: the amount of reagent, the time to read-out.

Test: 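Find kinase silencing that cuts viability alone or with anchor drugs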 (primary screen)
Cells: HCC2998 human colorectal cancer cells
Reagent: siRNA pool against human genes
Conditions: anchor drugs BYL719 1 µM, cetuximab 5 µg/ml or trametinib 10 nM, each compared with DMSO vehicle
Measured: 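Viability as fraction of non-targeting control plus robust z-score without drug; synergy scores compare knock-down plus drug against each alone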
Direction: viability z-score, knock-down alone: higher = more viable cells than controls; viability fraction, knock-down alone: higher = more viable cells; synergy score with BYL719: higher = stronger combined killing with BYL719; synergy score with trametinib: higher = stronger combined killing with trametinib; synergy score with cetuximab: higher = stronger combined killing with cetuximab
Hit rule: 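Essential when the siRNA-alone viability robust z-score is below -3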
Calls: active = essential; inactive = no change

gene symbol	viability z-score, knock-down alone	viability fraction, knock-down alone	synergy score with BYL719	synergy score with trametinib	synergy score with cetuximab
CDK8 (cyclin dependent kinase 8)	1.05	0.981	-0.126	-0.0931	-0.00835
RIOK2 (RIO kinase 2)	0.593	0.923	-0.0083	-0.0276	0.0511
TK2 (thymidine kinase 2)	-0.694	0.762	-0.2	-0.00554	-0.126
CSNK1A1 (casein kinase 1 alpha 1)	1.07	0.982	0.0128	0.129	-0.0352
LMTK1 (lemur tail kinase 1)	-0.203	0.823	0.0293	0.162	-0.0759
PLK2 (polo like kinase 2)	0.911	0.963	-0.103	-0.015	-0.026
IDH2 (isocitrate dehydrogenase (NADP(+)) 2)	-0.191	0.825	-0.169	-0.0482	-0.148
TTK (TTK protein kinase)	-1.22	0.696	0.0132	-0.0124	-0.0413
ALDH18A1 (aldehyde dehydrogenase 18 family member A1)	0.885	0.96	0.015	0.109	0.000148
PIK3C2A	-1.57	0.652	0.000654	0.0575	-0.09
GTF2H1 (general transcription factor IIH subunit 1)	-1.85	0.617	0.00486	0.116	0.0282
PFKFB3 (6-phosphofructo-2-kinase/fructose-2,6-biphosphatase 3)	-1.92	0.609	-0.0715	0.11	-0.022
PHKA2 (phosphorylase kinase regulatory subunit alpha 2)	0.61	0.925	-0.106	-0.0171	-0.0587
SKAP1 (src kinase associated phosphoprotein 1)	0.403	0.899	0.00196	0.118	-0.0218
CDK5 (cyclin dependent kinase 5)	0.84	0.954	0.0366	0.0394	0.0364
PRAG1 (PEAK1 related, kinase-activating pseudokinase 1)	-0.522	0.783	-0.191	-0.0187	-0.0567
UCKL1 (uridine-cytidine kinase 1 like 1)	0.741	0.942	-0.0243	-0.023	0.0514
TJP2 (tight junction protein 2)	-0.0853	0.838	-0.129	-0.159	-0.0237
PRP4K (pre-mRNA processing factor kinase PRP4K)	0.746	0.942	0.0502	0.131	0.0723
DAPK3 (death associated protein kinase 3)	-0.631	0.77	-0.106	-0.103	-0.133
PFKFB2 (6-phosphofructo-2-kinase/fructose-2,6-biphosphatase 2)	0.208	0.875	-0.131	0.116	-0.077
TP53 (tumor protein p53)	-0.883	0.738	-0.102	0.0201	-0.0182

4 neighbouring entries from above, quoted:
gene symbol	viability z-score, knock-down alone	viability fraction, knock-down alone	synergy score with BYL719	synergy score with trametinib	synergy score with cetuximab
ALDH18A1 (aldehyde dehydrogenase 18 family member A1)	0.885	0.96	0.015	0.109	0.000148
PIK3C2A	-1.57	0.652	0.000654	0.0575	-0.09
GTF2H1 (general transcription factor IIH subunit 1)	-1.85	0.617	0.00486	0.116	0.0282
PFKFB3 (6-phosphofructo-2-kinase/fructose-2,6-biphosphatase 3)	-1.92	0.609	-0.0715	0.11	-0.022

Continued.
gene symbol	viability z-score, knock-down alone	viability fraction, knock-down alone	synergy score with BYL719	synergy score with trametinib	synergy score with cetuximab
CHD9 (chromodomain helicase DNA binding protein 9)	-0.327	0.808	-0.0519	0.0464	-0.00304
CALM3 (calmodulin 3)	-0.883	0.738	-0.0623	-0.0168	0.0101
NEK4 (NIMA related kinase 4)	-2.34	0.556	-0.0705	-0.0272	-0.0991
MED24 (mediator complex subunit 24)	0.534	0.916	-0.0186	-0.0892	0.0022
CSF1R (colony stimulating factor 1 receptor)	-0.215	0.822	0.032	0.0912	0.084
EPHB3 (EPH receptor B3)	-0.379	0.801	0.0867	0.247	0.016
ALK (ALK receptor tyrosine kinase)	0.561	0.919	0.0795	0.166	0.0322
PTK2B (protein tyrosine kinase 2 beta)	-0.416	0.797	-0.111	0.00637	-0.17
RPS6KB1 (ribosomal protein S6 kinase B1)	0.696	0.936	0.0925	0.258	0.151
ATRX (ATRX chromatin remodeler)	1.07	0.983	-0.124	-0.137	-0.0332
PTK7 (protein tyrosine kinase 7 (inactive))	-1.27	0.69	0.0416	0.123	0.0818
EPHA4 (EPH receptor A4)	-0.565	0.778	-0.126	-0.0753	0.0027
